This note sets out measurements from the supplement of paper PMC5393889.

Some of the results follow.

The experiment relates to Caenorhabditis elegans N2. Nature of the experiment: aldicarb interaction hit call (worm growth perturbed in combination with 10 uM aldicarb in both replicates, no effect as single agent) (binary (1 = interacts)); higher = interacts with aldicarb (growth perturbed). The settings on record: first compound 1.5 µM; aldicarb concentration 10 µM; 6 days; 20 °C.
Turning to `COc1ccc(-c2n[nH]cc2CNCCc2ccc(Cl)cc2)cc1F` [wact-245] + CNC(=O)O/N=C/C(C)(C)SC [aldicarb], the “aldicarb interaction hit call” value is inactive: 0. Take `O=C(c1ccc(Cl)c(Cl)c1)N1CCN(c2ccc([N+](=O)[O-])cc2C(F)(F)F)CC1` [wact-501] + CNC(=O)O/N=C/C(C)(C)SC [aldicarb]: the “aldicarb interaction hit call” value was inactive: 0. The value for `Cc1ccc(-n2cc(CNCCc3cscn3)c(-c3ccc(F)cc3)n2)cc1` [wact-301] + CNC(=O)O/N=C/C(C)(C)SC [aldicarb] was inactive: 0; that for `CSc1ncc(CN2CCCC(CCC(=O)Nc3ccc(C(F)(F)F)cc3)C2)cn1` (stereo not drawn) [wact-286] + CNC(=O)O/N=C/C(C)(C)SC [aldicarb] was inactive: 0; that for `Clc1ccc(N2CCC(NC3COc4ccccc4C3)CC2)cc1` (stereo not drawn) [wact-242] + CNC(=O)O/N=C/C(C)(C)SC [aldicarb] was inactive: 0.

In the case of `O=C(c1ccco1)N(C(=O)c1ccco1)c1ccc(I)cn1` [wact-162] + CNC(=O)O/N=C/C(C)(C)SC [aldicarb], the “aldicarb interaction hit call” value is inactive: 0. Regarding `CCOc1ccc(-c2cnc3ccccc3n2)cc1` [wact-24] + CNC(=O)O/N=C/C(C)(C)SC [aldicarb], the “aldicarb interaction hit call” value was inactive: 0. For the compound `C(#Cc1cccc2ccccc12)c1ccccc1` [wact-341] + CNC(=O)O/N=C/C(C)(C)SC [aldicarb], the “aldicarb interaction hit call” value was inactive: 0. For `Clc1ccc(N2CCN(Cc3cccc(Cl)c3)CC2)cc1` [wact-216] + CNC(=O)O/N=C/C(C)(C)SC [aldicarb], the “aldicarb interaction hit call” value was inactive: 0. In the case of `Cc1ccc2nc(-c3ccc(/N=C/c4ccc(O)cc4)cc3)sc2c1` [wact-374] + CNC(=O)O/N=C/C(C)(C)SC [aldicarb] it was inactive: 0. For `C#CCSc1nsc(NC(=O)Nc2ccc(Cl)c(C(F)(F)F)c2)n1` [wact-343] + CNC(=O)O/N=C/C(C)(C)SC [aldicarb], the “aldicarb interaction hit call” value was inactive: 0. In the case of `CCCN1CCCC(C(=O)Nc2ccc(-c3cccc(OC)c3)cc2)C1` (stereo not drawn) [wact-270] + CNC(=O)O/N=C/C(C)(C)SC [aldicarb] it was inactive: 0; in that of `CN(CC1CCN(CCc2ccc(Cl)cc2)CC1)C(=O)c1cc(F)cc(F)c1` [wact-232] + CNC(=O)O/N=C/C(C)(C)SC [aldicarb], inactive: 0; in that of `CCCCC1CCC(c2nc(-c3cccnc3)no2)CC1` (stereo not drawn) [wact-444] + CNC(=O)O/N=C/C(C)(C)SC [aldicarb], inactive: 0. With `O=C(c1cccc(C(F)(F)F)c1)C1CCCN(Cc2cccc3cnccc23)C1` (stereo not drawn) [wact-248] + CNC(=O)O/N=C/C(C)(C)SC [aldicarb], the “aldicarb interaction hit call” value was inactive: 0. With `O=C(Nc1ccc(Cl)c(Cl)c1)NC1CCN(Cc2ccccc2)CC1` [wact-110] + CNC(=O)O/N=C/C(C)(C)SC [aldicarb], the “aldicarb interaction hit call” value was inactive: 0. The value for `COC(=O)CC[C@H](Nc1nncc(-c2ccc3ccccc3c2)n1)C(=O)OC` [wact-282] + CNC(=O)O/N=C/C(C)(C)SC [aldicarb] was inactive: 0. The value for `CC(C)c1ccc(-c2nc3cc(N)ccc3o2)cc1` [wact-130] + CNC(=O)O/N=C/C(C)(C)SC [aldicarb] was inactive: 0; that for `O=C(NC(=S)Nc1cccc(C(F)(F)F)c1)c1ccccc1F` [wact-463] + CNC(=O)O/N=C/C(C)(C)SC [aldicarb] was inactive: 0; that for `O=C(CCCc1ccccc1)N1CCN(c2ccc(Cl)cc2)CC1` [wact-124] + CNC(=O)O/N=C/C(C)(C)SC [aldicarb] was inactive: 0. In the case of `Clc1ccc(OCc2nc(-c3cccnc3)no2)cc1` [wact-54] + CNC(=O)O/N=C/C(C)(C)SC [aldicarb] it was inactive: 0.

Take `Fc1ccccc1Cn1c(-c2cncs2)nc2ccccc21` [wact-93] + CNC(=O)O/N=C/C(C)(C)SC [aldicarb]: the “aldicarb interaction hit call” value is inactive: 0.

With `CC(C)Sc1ncnc2c1cnn2-c1ccccc1` [wact-140] + CNC(=O)O/N=C/C(C)(C)SC [aldicarb], the “aldicarb interaction hit call” value was inactive: 0.

With `Cc1ccc(C2(c3noc(CN4CCC(c5ccncc5)CC4)n3)CCCC2)cc1` [wact-334] + CNC(=O)O/N=C/C(C)(C)SC [aldicarb], the “aldicarb interaction hit call” value was inactive: 0. As to `Clc1ccc(CSc2ncccn2)cc1Cl` [wact-92] + CNC(=O)O/N=C/C(C)(C)SC [aldicarb], the “aldicarb interaction hit call” value was inactive: 0. The value for `Cl.Clc1cc(Br)ccc1OCCCN1CCNCC1` [wact-85] + CNC(=O)O/N=C/C(C)(C)SC [aldicarb] was inactive: 0. Take `Brc1ccccc1Nc1nc(-c2ccccn2)cs1` [wact-546] + CNC(=O)O/N=C/C(C)(C)SC [aldicarb]: the “aldicarb interaction hit call” value is inactive: 0. The value for `Cl.Clc1c(OCCCn2ccnc2)ccc2ccccc12` [wact-148] + CNC(=O)O/N=C/C(C)(C)SC [aldicarb] was inactive: 0; that for `Cc1oc(-c2ccc(C(F)(F)F)cc2)nc1CN(C)C(C1CC1)C1CC1` [wact-330] + CNC(=O)O/N=C/C(C)(C)SC [aldicarb] was inactive: 0. On to `Fc1ccc(N2CCN(C3CCCN(Cc4ccc(C(F)(F)F)cc4)C3)CC2)cc1` (stereo not drawn) [wact-308] + CNC(=O)O/N=C/C(C)(C)SC [aldicarb], for which the “aldicarb interaction hit call” value is inactive: 0. As to `N/C(=N\OC(=O)c1cc(Br)ccc1Cl)c1ccccn1` [wact-540] + CNC(=O)O/N=C/C(C)(C)SC [aldicarb], the “aldicarb interaction hit call” value was inactive: 0.

`O=C(/C=C/c1ccc(Cl)cc1Cl)N1CCN(c2ccc(F)cc2)CC1` [wact-437] + CNC(=O)O/N=C/C(C)(C)SC [aldicarb]: the “aldicarb interaction hit call” value is inactive: 0.

For `CN(C)CCCOc1ccc(-c2ccccc2)cc1.Cl` [wact-152] + CNC(=O)O/N=C/C(C)(C)SC [aldicarb], the “aldicarb interaction hit call” value was inactive: 0. In the case of `Cc1cc(I)ccc1OCCCN(C)C.Cl` [wact-144] + CNC(=O)O/N=C/C(C)(C)SC [aldicarb] it was inactive: 0; in that of `CC[C@@]1(O)C(=O)OCc2c1cc1n(c2=O)Cc2cc3ccccc3nc2-1` + CNC(=O)O/N=C/C(C)(C)SC [aldicarb], inactive: 0; in that of `O=C(c1ccc(Cl)c(Cl)c1)N1CCN(c2ccc([N+](=O)[O-])cc2)CC1` [wact-53] + CNC(=O)O/N=C/C(C)(C)SC [aldicarb], inactive: 0.

As to `O=C(c1ccc(F)cc1)N1CCN(c2ccc(C(F)(F)F)cc2[N+](=O)[O-])CC1` [wact-450] + CNC(=O)O/N=C/C(C)(C)SC [aldicarb], the “aldicarb interaction hit call” value was inactive: 0.

`CN(Cc1cccc(F)c1F)CC1CCN(CCc2ccc(F)cc2)CC1` [wact-292] + CNC(=O)O/N=C/C(C)(C)SC [aldicarb]: the “aldicarb interaction hit call” value is inactive: 0.
